Results are given in words; binding and its absence hold for the method and conditions named. Binding seen in cells or lysates may run through a third protein.

Here are results for one molecule from paper PMC10709007, “GPR162 is a beta cell CART receptor” (iScience, 2023).

Test [1] has as its target T1, GPR160 (rat (endogenous in INS-1 832/13)) (UniProt Q66H29).
T1 sequence: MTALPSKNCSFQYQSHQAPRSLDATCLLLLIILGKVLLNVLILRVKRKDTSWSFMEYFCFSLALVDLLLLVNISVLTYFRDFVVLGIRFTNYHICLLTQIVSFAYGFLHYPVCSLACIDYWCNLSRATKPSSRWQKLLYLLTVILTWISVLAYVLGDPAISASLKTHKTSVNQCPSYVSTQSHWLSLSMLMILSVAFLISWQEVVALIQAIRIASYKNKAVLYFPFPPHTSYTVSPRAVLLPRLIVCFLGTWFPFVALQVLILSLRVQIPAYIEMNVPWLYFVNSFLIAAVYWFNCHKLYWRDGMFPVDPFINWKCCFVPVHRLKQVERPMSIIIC
As to the kind of experiment: proximity ligation; INS-1 832/13 cells incubated with 10^-7 M rat CARTp55-102 for 5 min at 37°C, fixed, permeabilised; DuoLink Goat/Rabbit with anti-CART and an anti-receptor antibody; control or Gpr162 siRNA (90% lower CART-GPR162 signal after KD); only the binder purified.

For test [2], the target named is T2, GIP receptor (rat (endogenous in INS-1 832/13)) (UniProt P43219).
T2 sequence: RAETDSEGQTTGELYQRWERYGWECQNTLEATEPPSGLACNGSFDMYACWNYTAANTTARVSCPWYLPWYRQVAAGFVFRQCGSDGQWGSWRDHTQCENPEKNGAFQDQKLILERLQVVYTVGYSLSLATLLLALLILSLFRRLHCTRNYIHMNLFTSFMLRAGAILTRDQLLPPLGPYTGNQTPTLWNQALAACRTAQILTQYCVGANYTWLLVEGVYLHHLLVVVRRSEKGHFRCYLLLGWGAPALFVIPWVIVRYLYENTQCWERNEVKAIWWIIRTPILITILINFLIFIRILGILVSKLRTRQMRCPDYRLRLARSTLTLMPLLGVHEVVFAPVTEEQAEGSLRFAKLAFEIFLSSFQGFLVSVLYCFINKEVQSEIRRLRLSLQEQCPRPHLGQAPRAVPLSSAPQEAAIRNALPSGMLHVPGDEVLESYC
Described as above.

In the case of IPIYEKKYGQVPMCDAGEQCAVRKGARIGKLCDCPRGTSCNSFLLKCL (peptide, UniProt P49192 82-129) [rat CARTp55-102], the binding result in test [1] and in test [2] was “no binding (tested: 10^-7 M CARTp55-102)” in each case.
